The values that follow come from publication PMC8976408.

By UniProt entry, the sequences of proteins in these tests, tags left out. Residues count along the entry.
UniProt Q07021, residues 74-282: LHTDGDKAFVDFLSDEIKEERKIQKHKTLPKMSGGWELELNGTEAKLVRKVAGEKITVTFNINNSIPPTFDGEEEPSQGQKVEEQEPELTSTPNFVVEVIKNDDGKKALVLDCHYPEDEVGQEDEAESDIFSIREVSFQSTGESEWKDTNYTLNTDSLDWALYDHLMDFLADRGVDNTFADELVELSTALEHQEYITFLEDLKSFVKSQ
UniProt P35222: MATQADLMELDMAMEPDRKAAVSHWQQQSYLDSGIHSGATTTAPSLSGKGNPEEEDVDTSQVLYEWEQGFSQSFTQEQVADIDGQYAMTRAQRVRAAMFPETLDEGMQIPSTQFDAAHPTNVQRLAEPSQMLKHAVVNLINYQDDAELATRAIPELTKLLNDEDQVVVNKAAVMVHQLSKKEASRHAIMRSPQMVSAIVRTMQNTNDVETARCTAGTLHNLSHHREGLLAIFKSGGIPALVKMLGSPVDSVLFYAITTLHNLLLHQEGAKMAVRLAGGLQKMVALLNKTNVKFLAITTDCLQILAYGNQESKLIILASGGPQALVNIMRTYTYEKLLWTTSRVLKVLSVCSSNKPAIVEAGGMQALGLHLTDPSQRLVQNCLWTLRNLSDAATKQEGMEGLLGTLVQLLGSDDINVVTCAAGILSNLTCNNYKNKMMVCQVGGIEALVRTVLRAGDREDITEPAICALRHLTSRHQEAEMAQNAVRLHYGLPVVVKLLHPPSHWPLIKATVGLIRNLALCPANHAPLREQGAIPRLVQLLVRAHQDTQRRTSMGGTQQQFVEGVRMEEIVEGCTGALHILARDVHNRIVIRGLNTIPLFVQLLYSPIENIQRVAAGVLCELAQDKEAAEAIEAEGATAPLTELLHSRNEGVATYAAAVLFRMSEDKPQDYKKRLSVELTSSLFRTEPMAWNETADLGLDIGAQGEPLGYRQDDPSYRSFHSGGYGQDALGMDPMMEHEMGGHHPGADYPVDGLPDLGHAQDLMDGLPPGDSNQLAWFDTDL

For this assay, the target named is complement C1q-binding protein (C1QBP) (human (endogenous in TU212 and LCC)) (UniProt Q07021). The experiment in a line: co-IP; endogenous proteins; lysates of ten million cells incubated with 1 μg anti-C1QBP antibody and anti-β-catenin antibody at 4 °C overnight, protein A beads, washed three times with PBS, western blot; cells without any intervention or after overexpressing circMTCL1.

Results are given in words; binding and its absence hold for the method and conditions named. In cells and extracts the contact can be indirect. Some entries that bind do so weakly or less than the wild type.

With β-catenin (from UniProt P35222 1-781), the binding result was “binds”.
